Measurements taken from US20210261668A1.
These are yes or no findings as the source states them, for the method shown. Some binding calls cover weakened binding; strength is not graded here.

Key:
[1] = target: EGFR expressed on HCC827 human lung cancer cells and on NCI-H747 human colon cancer cells (human) (UniProt P00533); assay: flow cytometry on cells, anti-human IgG secondary
[2] = target: EGFR expressed on NCI-H2172 human lung cancer cells (EGFR L858R T790M) (human) (UniProt P00533); assay: flow cytometry on cells, anti-human IgG secondary

binding [1]: binds
binding [2]: binds
B1: AdiCLC2 (antibody, V domains shown)
VH: QVQLQESGPGLVKPSETLSLTCTVSGGSVSSGSYYWSWIRQPPGKGLEWIGYIYYSGSTNYNPSLKSRVTISVDTSKNQFSLKLSSVTAADTAVYYCARTNLYSTPFDIWGQGTMVTVSS
VL: DIQLTQSPSSVSASVGDRVTITCRASQDISSWLAWYQQKPGKAPKLLIYAASSLQSGVPSRFSGSGSGTDFTLTISSLQPEDFATYYCQQEHDFPWTFGGGTKVEIK
